# Percent effect of library compounds

By UniProt entry, the sequences of proteins in these tests, tags left out.
UniProt I6X8D2, whole entry: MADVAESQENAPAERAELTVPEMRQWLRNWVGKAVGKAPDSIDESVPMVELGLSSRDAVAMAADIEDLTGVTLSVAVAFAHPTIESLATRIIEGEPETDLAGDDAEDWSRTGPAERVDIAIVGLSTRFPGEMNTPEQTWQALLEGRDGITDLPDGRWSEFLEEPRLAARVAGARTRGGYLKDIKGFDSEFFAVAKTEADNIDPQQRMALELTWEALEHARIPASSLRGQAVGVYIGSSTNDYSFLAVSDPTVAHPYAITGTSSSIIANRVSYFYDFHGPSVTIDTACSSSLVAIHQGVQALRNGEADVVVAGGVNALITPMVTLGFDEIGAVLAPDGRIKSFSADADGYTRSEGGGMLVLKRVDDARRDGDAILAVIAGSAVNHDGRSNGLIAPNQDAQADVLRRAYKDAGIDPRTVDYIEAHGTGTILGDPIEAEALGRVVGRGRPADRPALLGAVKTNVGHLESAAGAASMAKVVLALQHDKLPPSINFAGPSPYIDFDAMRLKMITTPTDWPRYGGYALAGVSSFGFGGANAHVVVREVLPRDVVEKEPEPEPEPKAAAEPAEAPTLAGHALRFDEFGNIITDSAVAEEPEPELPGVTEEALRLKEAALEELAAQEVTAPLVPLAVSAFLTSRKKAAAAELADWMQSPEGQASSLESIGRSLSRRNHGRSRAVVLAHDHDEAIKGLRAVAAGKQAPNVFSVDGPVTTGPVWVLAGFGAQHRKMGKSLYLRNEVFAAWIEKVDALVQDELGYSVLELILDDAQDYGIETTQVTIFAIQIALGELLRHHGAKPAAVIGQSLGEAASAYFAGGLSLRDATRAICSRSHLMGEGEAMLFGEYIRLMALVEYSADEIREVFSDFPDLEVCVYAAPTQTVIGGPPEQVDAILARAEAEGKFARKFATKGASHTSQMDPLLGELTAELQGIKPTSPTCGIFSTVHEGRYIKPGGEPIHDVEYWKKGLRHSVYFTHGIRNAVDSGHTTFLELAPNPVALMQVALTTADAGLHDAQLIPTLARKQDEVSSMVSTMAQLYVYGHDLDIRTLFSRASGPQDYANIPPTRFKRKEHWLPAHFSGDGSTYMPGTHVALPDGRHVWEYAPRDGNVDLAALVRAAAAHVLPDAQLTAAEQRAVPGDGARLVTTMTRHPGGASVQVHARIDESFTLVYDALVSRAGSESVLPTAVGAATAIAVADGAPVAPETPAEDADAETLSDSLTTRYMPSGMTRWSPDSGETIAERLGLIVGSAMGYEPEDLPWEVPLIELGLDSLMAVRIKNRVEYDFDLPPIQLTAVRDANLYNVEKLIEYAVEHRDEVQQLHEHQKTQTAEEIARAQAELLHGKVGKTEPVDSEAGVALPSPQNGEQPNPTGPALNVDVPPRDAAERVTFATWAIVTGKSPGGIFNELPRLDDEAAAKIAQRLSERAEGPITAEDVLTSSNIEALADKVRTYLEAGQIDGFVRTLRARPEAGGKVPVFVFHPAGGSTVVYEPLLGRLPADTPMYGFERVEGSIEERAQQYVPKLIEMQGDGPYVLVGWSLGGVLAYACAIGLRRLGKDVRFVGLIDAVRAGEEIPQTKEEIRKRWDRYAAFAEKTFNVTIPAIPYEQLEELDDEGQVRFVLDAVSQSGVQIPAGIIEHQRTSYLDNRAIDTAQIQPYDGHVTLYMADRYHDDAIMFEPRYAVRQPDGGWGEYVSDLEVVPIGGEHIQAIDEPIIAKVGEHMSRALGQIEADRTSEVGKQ

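Polyketide synthase Pks13, Mycobacterium tuberculosis (UniProt I6X8D2). Enzyme assay of the thioesterase domain of polyketide synthase 13; the read-out is not stated. Tested at 30 µM. Higher reads as stronger inhibition (inferred from which compounds were picked for retests). Size under these conditions: about 67,000 compounds, about 300 of them at 50% or above in at least one test.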

Values are the deposited “Percent Effect”, in %.
The controls that fix the scale are not given in the record; negative values are as filed.
This is an unselected part of the compounds tested.

| # | Compound | Percent Effect |
|---|---|---|
| 1 | `Cc1ccc2c(C)c(C(=O)NCCc3csc(N)n3)oc2c1` | -2.618 |
| 2 | `CC(C)n1[nH]c(=O)c2c1NC(=O)CSC2C1CCCCC1` (stereo not drawn) | -20.38 |
| 3 | `Cc1cc(C)c2nc(CN3CCCC(c4cc[nH]n4)C3)cc(O)c2c1` (stereo not drawn) | -13.13 |
| 4 | `N#Cc1cccc(N2CC3(CCN(C(=O)c4ccnnc4)C3)CC2=O)c1` (stereo not drawn) | 1.036 |
| 5 | `CN1C[C@@H](n2cnc(-c3ccccc3)c2-c2c[nH]cn2)C[C@H]1C(=O)O` | -15.92 |
| 6 | `O=C(NCCn1ccnc1)NCC(c1ccco1)N1CCCC1` (stereo not drawn) | -32.79 |
| 7 | `Nc1ncccc1C(=O)NCc1ccc(Br)cc1` | -1.727 |
| 8 | `CC(C)NC(=O)N1CCC(c2nnc3ccc(C(=O)N(C)C)cn23)C1` (stereo not drawn) | -28.55 |
| 9 | `CNc1ccc(C2CN(c3cc(C)ncn3)CCO2)nc1` (stereo not drawn) | 2.421 |
| 10 | `O=C(NCc1ccco1)[C@H]1CC[C@@H]2[C@@H](CCN2C2CCC2)O1` | 5.057 |
| 11 | `CC(=O)N1CCN(C(=O)NCc2ccc(Cl)s2)CC1` | -19.27 |
| 12 | `CCc1ccc(C(=O)NC[C@H]2CCCN2C(=O)c2ccc(CC)o2)o1` | -34.31 |
| 13 | `CCCc1nnc(N2CCC3(CCC(=O)N(C)C3)CC2)o1` | -10.72 |
| 14 | `Cc1cc(CN(C)C(=O)NCC(C)N2CCc3ccccc32)no1` (stereo not drawn) | -2.821 |
| 15 | `CCCC(=O)Nc1ccc(CC(=O)N(C)CCc2cn[nH]c2)cc1` | -25.68 |
| 16 | `CCn1nc(-c2ccccc2F)ccc1=O` | -14.05 |
| 17 | `NC(=O)CCSCc1cc(Br)cc2cccnc12` | 4.761 |
| 18 | `CNC(=O)CN1CCC(NC(=O)N(C)Cc2c(C)noc2C)CC1` | -27.44 |
| 19 | `COc1c(CNCCc2c[nH]c3ccccc23)c(C(C)C)nn1C` | -7.943 |
| 20 | `Cc1cc(C)c2nc(CN3CCC(N4CCOC4=O)CC3)cc(O)c2c1` | -6.143 |
| 21 | `Cc1nccn1C1CCCN(C(=O)c2cccc3c2OCO3)C1` (stereo not drawn) | -13.29 |
| 22 | `Cc1nnc([C@@H]2CC[C@@H]3[C@@H](CCN3S(=O)(=O)C3CC3)O2)o1` | -9.691 |
| 23 | `Cc1nc(N2CCCC2)nc2c1CCN(Cc1ccoc1)CC2` | -25.73 |
| 24 | `NC(=O)C1CCN(C(=O)c2ccc(OCc3cscn3)cc2)CC1` | -20.94 |
| 25 | `COc1c(CNC2CCc3cc(F)ccc32)c(C)nn1C` (stereo not drawn) | -9.913 |
| 26 | `O=C(Nc1nc2c(s1)CN(S(=O)(=O)C1CC1)CC2)c1cccc(Cl)c1` | 75.55 |
| 27 | `CCn1cc(CN2C[C@@H]3CCCN3C[C@H]2CCSC)cn1` | 6.15 |
| 28 | `CCOc1ncccc1CNC(=O)N1CCCC1c1cccs1` (stereo not drawn) | 0.4507 |
| 29 | `Cc1ccccc1NC(=O)CCNC(=O)c1ccoc1` | -1.494 |
| 30 | `CN(Cc1cccnc1)C1CCCN(Cc2noc(C3CC3)n2)C1` (stereo not drawn) | -40.64 |
| 31 | `CN(CC1COc2ccccc2O1)C(=O)c1ccc(-c2cn[nH]c2)nc1` (stereo not drawn) | -7.593 |
| 32 | `O=C(Nc1ccc2c(c1)OCO2)N1CCCC1c1ccco1` (stereo not drawn) | -8.113 |
| 33 | `O=C(C1CCOC1)N1CCc2ncc(CNc3ccccn3)n2CC1` (stereo not drawn) | -7.496 |
| 34 | `O=C(NCC1CCCO1)c1cc(-c2cccnc2)c2cnccc2n1` (stereo not drawn) | 0.8842 |
| 35 | `O=C1NC2(CCNCC2)CC1c1cccnc1` (stereo not drawn) | -18.5 |
| 36 | `Cc1nn(C)cc1CN1CCCCCC1c1ccc(Cl)cc1` (stereo not drawn) | 6.775 |
| 37 | `O=C(O)c1cccnc1CN1CCCC1CCc1ccccc1` (stereo not drawn) | -16.86 |
| 38 | `Cc1noc(C2CCN(C(C)c3nc(C(C)(C)C)no3)CC2)n1` (stereo not drawn) | -32.85 |
| 39 | `Cc1ccc(NC2CCN(C(=O)CCNc3ncccn3)CC2)nn1` | -10.21 |
| 40 | `Cc1cc(C(=O)NC2CCCOc3cc(Cl)ccc32)n(C)n1` (stereo not drawn) | -10.17 |
| 41 | `Cc1ccc(C(O)CNC(=O)c2cccnc2O)cc1` (stereo not drawn) | -10.94 |
| 42 | `Cc1nccn1CCC1CCCCN1Cc1ccc2c(c1)OCCO2` (stereo not drawn) | -6.864 |
| 43 | `COc1ccc(OCc2cc(C(=O)N3CC=CC3)n[nH]2)c(Cl)c1` | 16.96 |
| 44 | `COc1cc(C)ccc1OCc1nc(C(=O)N2CCC(C)CC2)co1` | 7.38 |
| 45 | `CCCNC(=O)Nc1ccn(CCCOC)n1` | -2.32 |
| 46 | `CCN1CCOC(CNCc2ccccc2OCc2cccnc2)C1` (stereo not drawn) | -18.94 |
| 47 | `O=C([C@@H]1CCO[C@@H]2CCN(Cc3ccco3)C[C@H]21)N1CCCCO1` | -21.74 |
| 48 | `Cc1ccccc1C(=O)N1CCN(c2ccc(-n3cncn3)nn2)CC1` | -25.23 |
| 49 | `Cn1ccnc1CN1CCC(Cc2ccccn2)CC1` | -21.6 |
| 50 | `Cn1c(CN2CCN(c3cccnc3)CC2)cc2ccccc21` | -13.46 |
| 51 | `Cn1cnc2c1C(COCC1CC1)CN(C(=O)c1cscn1)C2` (stereo not drawn) | -15.44 |
| 52 | `CCC(CO)N(Cc1ccccn1)C(=O)c1ncccc1C` (stereo not drawn) | 0.6637 |
| 53 | `NS(=O)(=O)c1cccc(CNc2nccc(C(F)(F)F)n2)c1` | -9.091 |
| 54 | `COc1cc(O)cc2c1C(=O)CC(c1ccc(O)cc1)O2` (stereo not drawn) | -11.56 |
| 55 | `NC(=O)CN1CCCN(C(=O)Cc2ccc(F)c(Br)c2)CC1` | -8.211 |
| 56 | `CN(C)CCn1c(=O)oc2ccc(NC(=O)C3CCCO3)cc21` (stereo not drawn) | 3.418 |
| 57 | `CN(C(=O)CC1=CCCCC1)C1CCCN(C2Cc3ccccc3C2)C1` (stereo not drawn) | -11.31 |
| 58 | `Cc1nn2cnnc2c(C)c1CCC(=O)Nc1nnc(C(C)C)s1` | -9.575 |
| 59 | `Cc1cc(C)n(-c2cc(N3CCN(C(=O)C(C)(C)C)CC3)nc(C)n2)n1` | -21.46 |
| 60 | `COc1ccc2c(OCC(=O)NCC(F)(F)F)ccnc2c1` | 0.3174 |
| 61 | `Nc1nc(C2CCN(C(=O)c3cnco3)CC2)cs1` | -2.667 |
| 62 | `Cc1cccc(CNC2(CCO)CCOCC2)c1C` | 3.914 |
| 63 | `CCc1cnc(N2C[C@@H]3[C@@H](C(=O)NC(C)C)CCS(=O)(=O)[C@@H]3C2)nc1` | -33.4 |
| 64 | `CNC(=O)COc1cccc(CNCc2c(C)noc2C)c1` | -0.4451 |
| 65 | `Cc1ccc(C(=O)NS(=O)(=O)c2cc(Br)ccc2C)c(=O)[nH]1` | -4.457 |
| 66 | `COCCN1CCc2cc(C(=O)N(C)C)c(NC(C)C)nc2CC1` | -2.984 |
| 67 | `O=C(NCC(O)(c1ccco1)C1CC1)c1c(F)cccc1Cl` (stereo not drawn) | -12.36 |
| 68 | `Cc1nnc([C@@]23CCO[C@@H]2CCN(Cc2ccc4c(c2)OCO4)C3)o1` | -11.44 |
| 69 | `CCC(CC)CN(C)Cc1nc(-c2ccccc2NS(C)(=O)=O)oc1C` | -30.69 |
| 70 | `O=C1NC(C(=O)NCc2cccnc2Oc2ccc(F)cc2F)CO1` (stereo not drawn) | -0.4206 |
| 71 | `NC(=O)CN1CCCC(c2ccnc(Nc3ncccn3)c2)C1` (stereo not drawn) | -20.85 |
| 72 | `Cn1cc(CN2CCc3c(c(COCC#N)nn3C)C2)cn1` | -31.82 |
| 73 | `CN(C)C(=O)N1CCCC2(CCN(c3ccsc3)C2=O)C1` (stereo not drawn) | 3.236 |
| 74 | `O=C(c1cnccn1)N1C[C@@H]2CCN(c3cccnc3)C[C@@H]2C1` | 1.345 |
| 75 | `CC(Nc1ccc(Oc2cccc(C#N)c2)cc1)C(=O)NC1CC1` (stereo not drawn) | -14.14 |
| 76 | `CN(C)C(=O)[C@@H]1CCO[C@@H]2CCN(CCc3ccccc3)C[C@@H]21` | -15.28 |
| 77 | `Fc1cccc(CN2CCOCC3(CCN(C4CCOCC4)C3)C2)c1` (stereo not drawn) | -6.754 |
| 78 | `CC(C)(C)c1n[nH]c(C2CN(C(=O)c3cnc[nH]3)CCO2)n1` (stereo not drawn) | -10.09 |
| 79 | `CCn1c(C2CCN(C(=O)c3cc(CC(C)C)on3)CC2)nn(C)c1=O` | 9.49 |
| 80 | `Cn1cnc2ccc(NC(=O)CCCn3cccn3)cc2c1=O` | -3.262 |
| 81 | `COCCN(CC1CC1)c1nc(CCN)nc2sc(C)c(C)c12` | -33.58 |
| 82 | `c1nc(N2CCOCC2)ncc1-c1cncn1CCCN1CCCCC1` | 9.535 |
| 83 | `Cc1nc(CN(C)C(=O)Nc2cccc(COC(C)C)c2)no1` | -9.983 |
| 84 | `CCc1n[nH]c(C2CN(C(=O)c3cscn3)CCO2)n1` (stereo not drawn) | -27.88 |
| 85 | `COCCC1(CO)CCCN(C(=O)CCC(F)(F)F)C1` (stereo not drawn) | -9.873 |
| 86 | `CCC(O)CN1CCN(C(=O)c2cccc(CC#N)c2)CC1` (stereo not drawn) | -8.158 |
| 87 | `CSc1ccc(C(=O)N2C[C@H]3CC[C@@H]2CN(Cc2ccccc2)C3)cc1` | -15.96 |
| 88 | `COCCNC(=O)NCCS(=O)(=O)N1CCN(c2cccc(C)c2)CC1` | 4.509 |
| 89 | `O=C(Cc1ccc(F)cc1)N1CCn2c(Cn3cncn3)cnc2C1` | -4.8 |
| 90 | `Cc1cccc(C(C)(C)NC(=O)CCS(C)(=O)=O)c1` | -18.81 |
| 91 | `Cc1n[nH]c(C)c1CCC(=O)NC1CCCN(c2ccccc2F)C1` (stereo not drawn) | 23.88 |
| 92 | `NCc1cnn(-c2ccccc2C(=O)NCc2ccncc2)c1` | -37.96 |
| 93 | `Cc1noc(C)c1C(=O)N1C[C@@H]2COC[C@]2(COc2ccccn2)C1` | -16.39 |
| 94 | `Cc1ccc(CNC(c2cccc(F)c2)c2nccn2C)o1` (stereo not drawn) | -9.026 |
| 95 | `Cc1cc(C)n(C2CN(CC(O)c3ccc(S(C)(=O)=O)cc3)C2)n1` (stereo not drawn) | -2.807 |

Measurements from “University of Dundee, Small-Polar-MMV Screening Library” (2021), ChEMBL document CHEMBL3988442.